Data source: PubChem BioAssay AID1259274 (Sanger Institute, 2017)

Test: 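Kinases RKO cells need to grow, alone or with anchor drugs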 (primary screen)
Cells: human RKO colorectal cancer cells
Reagents: siRNA pool against human genes
Conditions: anchor drugs BYL719 at 1 µM, cetuximab at 5 µg/ml or trametinib at 10 nM; DMSO vehicle as the no-drug arm
Measurement: 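Viability of cells versus control pool 2 (non-targeting) averaged across replicates; knock-down-only robust z-score; for every anchor drug (BYL719, cetuximab, trametinib) a synergy score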
Direction: viability z-score, siRNA alone: higher = more viable cells; low values mean essential gene; viability, siRNA alone, vehicle: higher = more viable cells; synergy score with BYL719: higher = stronger combined killing with the drug
Active means: 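Essential when the robust viability z-score with siRNA only falls below -3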
Calls: active = essential when knocked down alone; inactive = no change alone
The deposit covers 794 reagents; shown is an unselected part. In the full data, 11 (1.4%) were called active. 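Calls rest on knock-down without drug only; synergy scores with anchor drugs were not used for the essential call.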 No viability above 1 is reported: the scale is capped. Further read-outs or replicates are left out here. Not stated in the record: the amount of reagent, the time to read-out.

no.	gene knocked down	viability z-score, siRNA alone	viability, siRNA alone, vehicle (fraction of control)	synergy score with BYL719	Outcome
1	EPHB6 (GeneID 2051)	-0.132	0.887	-0.0574	inactive
2	TWF1 (GeneID 5756)	0.198	0.915	-0.166	inactive
3	IKBKE (GeneID 9641)	-1.21	0.794	-0.0733	inactive
4	CLK4 (GeneID 57396)	-0.233	0.878	-0.0814	inactive
5	NEK6 (GeneID 10783)	0.324	0.926	-0.0558	inactive
6	PRKCQ (GeneID 5588)	1.19	1	0.00776	inactive
7	PDK2 (GeneID 5164)	-0.863	0.824	-0.0172	inactive
8	PNCK (GeneID 139728)	0.214	0.916	-0.0384	inactive
9	LCK (GeneID 3932)	0.128	0.909	-0.174	inactive
10	NRK (GeneID 203447)	1.07	0.99	0.0241	inactive
11	PTPRU (GeneID 10076)	-1.38	0.779	-0.108	inactive
12	CDK11A (GeneID 728642)	-3.34	0.612	-0.265	active
13	CDKN1C (GeneID 1028)	0.887	0.974	-0.131	inactive
14	DYRK2 (GeneID 8445)	0.783	0.965	-0.105	inactive
15	MAP2K3 (GeneID 5606)	-1.37	0.781	-0.0172	inactive
16	ITSN1 (GeneID 6453)	0.296	0.923	-0.0277	inactive

Not a retest: entries from further up.
no.	gene knocked down	viability z-score, siRNA alone	viability, siRNA alone, vehicle (fraction of control)	synergy score with BYL719	Outcome
12	CDK11A (GeneID 728642)	-3.34	0.612	-0.265	active
13	CDKN1C (GeneID 1028)	0.887	0.974	-0.131	inactive
14	DYRK2 (GeneID 8445)	0.783	0.965	-0.105	inactive

Next records follow:
no.	gene knocked down	viability z-score, siRNA alone	viability, siRNA alone, vehicle (fraction of control)	synergy score with BYL719	Outcome
17	EFNA5 (GeneID 1946)	1.19	1	0.00521	inactive
18	DSTYK (GeneID 25778)	0.62	0.951	0.122	inactive
19	CHEK2 (GeneID 11200)	0.538	0.944	-0.0613	inactive
20	PRKCSH (GeneID 5589)	1.12	0.994	0.0294	inactive
21	PIK3CD (GeneID 5293)	1.1	0.992	0.0178	inactive
22	WIPF1 (GeneID 7456)	-1.17	0.798	0.00526	inactive
23	FXN (GeneID 2395)	-0.232	0.878	-0.154	inactive
24	STK35 (GeneID 140901)	1.13	0.995	-0.0315	inactive
25	MAP3K1 (GeneID 4214)	0.687	0.957	-0.0615	inactive
26	TSSK1B (GeneID 83942)	1.14	0.996	0.0142	inactive
27	PHKB (GeneID 5257)	0.739	0.961	-0.119	inactive
28	MVK (GeneID 4598)	1.12	0.994	0.000675	inactive
29	STK10 (GeneID 6793)	1.19	1	-0.0833	inactive
30	TWF2 (GeneID 11344)	-0.721	0.836	-0.0838	inactive
31	ATR (GeneID 545)	1.15	0.997	0.0714	inactive
32	EPHA6 (GeneID 285220)	-1.04	0.809	-0.0438	inactive
33	AURKA (GeneID 6790)	-0.935	0.818	0.0398	inactive
34	MAP2K5 (GeneID 5607)	1.05	0.988	0.0481	inactive
35	RIPK1 (GeneID 8737)	-0.498	0.855	-0.12	inactive
36	SYK (GeneID 6850)	1.19	1	0.0921	inactive
37	MUSK (GeneID 4593)	-0.308	0.872	-0.098	inactive
38	DAPK1 (GeneID 1612)	0.791	0.966	0.0261	inactive
39	BRD2 (GeneID 6046)	1.19	1	-0.0105	inactive
40	MAP4K4 (GeneID 9448)	-0.551	0.851	-0.219	inactive
41	PKM (GeneID 5315)	0.524	0.943	-0.0914	inactive
42	BCKDK (GeneID 10295)	1.19	1	-0.115	inactive
43	AK4 (GeneID 205)	0.03	0.901	-0.205	inactive
44	CDKN2C (GeneID 1031)	0.88	0.973	-0.0771	inactive
45	GSK3A (GeneID 2931)	0.442	0.936	-0.0444	inactive
46	PRKCE (GeneID 5581)	0.739	0.961	-0.168	inactive
47	UCKL1 (GeneID 54963)	0.555	0.946	-0.0365	inactive
48	STK31 (GeneID 56164)	0.199	0.915	-0.0356	inactive
49	CAMK2B (GeneID 816)	1.19	1	-0.131	inactive
50	AMER1 (GeneID 139285)	0.861	0.972	0.0384	inactive
